This is an account of results in PMC7063070.

The test has as its target integrin αVβ5 (human (endogenous in MDA-MB-435S)). Put plainly: isolation of cross-linked integrin adhesion complexes with mass spectrometry; cells grown 48 h on uncoated dishes, cross-linked with 6 mM DTBP for 5 min, lysed in modified RIPA buffer, cell bodies removed by high-pressure washing, remaining adhesions scraped off and analysed by LC-MS/MS; MDA-MB-435S compared with the integrin αV knock-down clones 2αV and 3αV; no bait.

No constants are given. Whether binding was seen depends on the method and setting. In cells and extracts the contact can be indirect. These calls come from enrichment with a bait or labelling near it, and not all partners need be listed.

B1: KN motif and ankyrin repeat domain-containing protein 2 (KANK2) (protein, UniProt Q63ZY3 1-851)
chain: MAQVLHVPAPFPGTPGPASPPAFPAKDPDPPYSVETPYGYRLDLDFLKYVDDIEKGHTLRRVAVQRRPRLSSLPRGPGSWWTSTESLCSNASGDSRHSAYSYCGRGFYPQYGALETRGGFNPRVERTLLDARRRLEDQAATPTGLGSLTPSAAGSTASLVGVGLPPPTPRSSGLSTPVPPSAGHLAHVREQMAGALRKLRQLEEQVKLIPVLQVKLSVLQEEKRQLTVQLKSQKFLGHPTAGRGRSELCLDLPDPPEDPVALETRSVGTWVRERDLGMPDGEAALAAKVAVLETQLKKALQELQAAQARQADPQPQAWPPPDSPVRVDTVRVVEGPREVEVVASTAAGAPAQRAQSLEPYGTGLRALAMPGRPESPPVFRSQEVVETMCPVPAAATSNVHMVKKISITERSCDGAAGLPEVPAESSSSPPGSEVASLTQPEKSTGRVPTQEPTHREPTRQAASQESEEAGGTGGPPAGVRSIMKRKEEVADPTAHRRSLQFVGVNGGYESSSEDSSTAENISDNDSTENEAPEPRERVPSVAEAPQLRPAGTAAAKTSRQECQLSRESQHIPTAEGASGSNTEEEIRMELSPDLISACLALEKYLDNPNALTERELKVAYTTVLQEWLRLACRSDAHPELVRRHLVTFRAMSARLLDYVVNIADSNGNTALHYSVSHANFPVVQQLLDSGVCKVDKQNRAGYSPIMLTALATLKTQDDIETVLQLFRLGNINAKASQAGQTALMLAVSHGRVDVVKALLACEADVNVQDDDGSTALMCACEHGHKEIAGLLLAVPSCDISLTDRDGSTALMVALDAGQSEIASMLYSRMNIKCSFAPMSDDESPTSSSAEE
Consider B1, for which the binding entry is “binds”.

B2: LL5β (pleckstrin homology (PH)-like domain, family B, member 2) (protein, UniProt Q86SQ0 1-1253)
chain: MEEHSYIQKELDLQNGSLEEDSVVHSVENDSQNMMESLSPKKYSSSLRFKANGDYSGSYLTLSQPVPAKRSPSPLGTSVRSSPSLAKIQGSKQFSYDGTDKNIPMKPPTPLLNTTSSLSGYPLGRADFDHYTGRDSERALRLSEKPPYSKYSSRHKSHDNVYSLGGLEGRKASGSLLAMWNGSSLSDAGPPPISRSGAASMPSSPKQARKMSIQDSLALQPKLTRHKELASENINLRTRKYSSSSLSHMGAYSRSLPRLYRATENQLTPLSLPPRNSLGNSKRTKLGEKDLPHSVIDNDNYLNFSSLSSGALPYKTSASEGNPYVSSTLSVPASPRVARKMLLASTSSCASDDFDQASYVGTNPSHSLLAGESDRVFATRRNFSCGSVEFDEADLESLRQASGTPQPALRERKSSISSISGRDDLMDYHRRQREERLREQEMERLERQRLETILSLCAEYTKPDSRLSTGTTVEDVQKINKELEKLQLSDEESVFEEALMSPDTRYRCHRKDSLPDADLASCGSLSQSSASFFTPRSTRNDELLSDLTRTPPPPSSTFPKASSESSYLSILPKTPEGISEEQRSQELAAMEETRIVILNNLEELKQKIKDINDQMDESFRELDMECALLDGEQKSETTELMKEKEILDHLNRKIAELEKNIVGEKTKEKVKLDAEREKLERLQELYSEQKTQLDNCPESMREQLQQQLKRDADLLDVESKHFEDLEFQQLEHESRLDEEKENLTQQLLREVAEYQRNIVSRKEKISALKKQANHIVQQAQREQDHFVKEKNNLIMMLQREKENLCNLEKKYSSLSGGKGFPVNPNTLKEGYISVNEINEPCGNSTNLSPSTQFPADADAVATEPATAVLASQPQSKEHFRSLEERKKQHKEGLYLSDTLPRKKTTSSISPHFSSATMGRSITPKAHLPLGQSNSCGSVLPPSLAAMAKDSESRRMLRGYNHQQMSEGHRQKSEFYNRTASESNVYLNSFHYPDHSYKDQAFDTLSLDSSDSMETSISACSPDNISSASTSNIARIEEMERLLKQAHAEKTRLLESREREMEAKKRALEEEKRRREILEKRLQEETSQRQKLIEKEVKIRERQRAQARPLTRYLPVRKEDFDLRSHVETAGHNIDTCYHVSITEKTCRGFLIKMGGKIKTWKKRWFVFDRNKRTFSYYADKHETKLKGVIYFQAIEEVYYDHLKNANKSPNPLLTFSVKTHDRIYYMVAPSPEAMRIWMDVIVTGAEGYTHFLL
In the case of B2, the binding entry was “binds”.
